# These are yes or no findings as the source states them, for the method shown. In cells and extracts the contact can be indirect. Here binding means that the protein was enriched with, or labelled near, the bait; the list need not be complete. Tags and fused reporters may be left off the sequences shown.
# B1: Mccc2 (protein, UniProt Q9HCC0 23-563)
# chain: YHGDSVASLGTQPDLGSALYQENYKQMKALVNQLHERVEHIKLGGGEKARALHISRGKLLPRERIDNLIDPGSPFLELSQFAGYQLYDNEEVPGGGIITGIGRVSGVECMIIANDATVKGGAYYPVTVKKQLRAQEIAMQNRLPCIYLVDSGGAYLPRQADVFPDRDHFGRTFYNQAIMSSKNIAQIAVVMGSCTAGGAYVPAMADENIIVRKQGTIFLAGPPLVKAATGEEVSAEDLGGADLHCRKSGVSDHWALDDHHALHLTRKVVRNLNYQKKLDVTIEPSEEPLFPADELYGIVGANLKRSFDVREVIARIVDGSRFTEFKAFYGDTLVTGFARIFGYPVGIVGNNGVLFSESAKKGTHFVQLCCQRNIPLLFLQNITGFMVGREYEAEGIAKDGAKMVAAVACAQVPKITLIIGGSYGAGNYGMCGRAYSPRFLYIWPNARISVMGGEQAANVLATITKDQRAREGKQFSSADEAALKEPIIKKFEEEGNPYYSSARVWDDGIIDPADTRLVLGLSFSAALNAPIEKTDFGIFRM
# B2: Ssr1 (protein, UniProt P43307 19-286)
# chain: VLFRGGPRGLLAVAQDLTEDEETVEDSIIEDEDDEAEVEEDEPTDLVEDKEEEDVSGEPEASPSADTTILFVKGEDFPANNIVKFLVGFTNKGTEDFIVESLDASFRYPQDYQFYIQNFTALPLNTVVPPQRQATFEYSFIPAEPMGGRPFGLVINLNYKDLNGNVFQDAVFNQTVTVIEREDGLDGETIFMYMFLAGLGLLVIVGLHQLLESRKRKRPIQKVEMGTSSQNDVDMSWIPQETLNQINKASPRRLPRKRAQKRSVGSDE
# B3: Luc7l3 (protein, UniProt O95232 1-432)
# chain: MISAAQLLDELMGRDRNLAPDEKRSNVRWDHESVCKYYLCGFCPAELFTNTRSDLGPCEKIHDENLRKQYEKSSRFMKVGYERDFLRYLQSLLAEVERRIRRGHARLALSQNQQSSGAAGPTGKNEEKIQVLTDKIDVLLQQIEELGSEGKVEEAQGMMKLVEQLKEERELLRSTTSTIESFAAQEKQMEVCEVCGAFLIVGDAQSRVDDHLMGKQHMGYAKIKATVEELKEKLRKRTEEPDRDERLKKEKQEREEREKEREREREERERKRRREEEEREKERARDRERRKRSRSRSRHSSRTSDRRCSRSRDHKRSRSRERRRSRSRDRRRSRSHDRSERKHRSRSRDRRRSKSRDRKSYKHRSKSRDREQDRKSKEKEKRGSDDKKSSVKSGSREKQSEDTNTESKESDTKNEVNGTSEDIKSEGDTQSN
# B4: Ap3b1 (protein, UniProt O00203 1-1094)
# chain: MSSNSFPYNEQSGGGEATELGQEATSTISPSGAFGLFSSDLKKNEDLKQMLESNKDSAKLDAMKRIVGMIAKGKNASELFPAVVKNVASKNIEIKKLVYVYLVRYAEEQQDLALLSISTFQRALKDPNQLIRASALRVLSSIRVPIIVPIMMLAIKEASADLSPYVRKNAAHAIQKLYSLDPEQKEMLIEVIEKLLKDKSTLVAGSVVMAFEEVCPDRIDLIHKNYRKLCNLLVDVEEWGQVVIIHMLTRYARTQFVSPWKEGDELEDNGKNFYESDDDQKEKTDKKKKPYTMDPDHRLLIRNTKPLLQSRNAAVVMAVAQLYWHISPKSEAGIISKSLVRLLRSNREVQYIVLQNIATMSIQRKGMFEPYLKSFYVRSTDPTMIKTLKLEILTNLANEANISTLLREFQTYVKSQDKQFAAATIQTIGRCATNILEVTDTCLNGLVCLLSNRDEIVVAESVVVIKKLLQMQPAQHGEIIKHMAKLLDSITVPVARASILWLIGENCERVPKIAPDVLRKMAKSFTSEDDLVKLQILNLGAKLYLTNSKQTKLLTQYILNLGKYDQNYDIRDRTRFIRQLIVPNVKSGALSKYAKKIFLAQKPAPLLESPFKDRDHFQLGTLSHTLNIKATGYLELSNWPEVAPDPSVRNVEVIELAKEWTPAGKAKQENSAKKFYSESEEEEDSSDSSSDSESESGSESGEQGESGEEGDSNEDSSEDSSSEQDSESGRESGLENKRTAKRNSKAKGKSDSEDGEKENEKSKTSDSSNDESSSIEDSSSDSESESEPESESESRRVTKEKEKKTKQDRTPLTKDVSLLDLDDFNPVSTPVALPTPALSPSLMADLEGLHLSTSSSVISVSTPAFVPTKTHVLLHRMSGKGLAAHYFFPRQPCIFGDKMVSIQITLNNTTDRKIENIHIGEKKLPIGMKMHVFNPIDSLEPEGSITVSMGIDFCDSTQTASFQLCTKDDCFNVNIQPPVGELLLPVAMSEKDFKKEQGVLTGMNETSAVIIAAPQNFTPSVIFQKVVNVANVGAVPSGQDNIHRFAAKTVHSGSLMLVTVELKEGSTAQLIINTEKTVIGSVLLRELKPVLSQG
# B5: Ap3d1 (protein, UniProt O14617 1-1153)
# chain: MALKMVKGSIDRMFDKNLQDLVRGIRNHKEDEAKYISQCIDEIKQELKQDNIAVKANAVCKLTYLQMLGYDISWAAFNIIEVMSASKFTFKRIGYLAASQSFHEGTDVIMLTTNQIRKDLSSPSQYDTGVALTGLSCFVTPDLARDLANDIMTLMSHTKPYIRKKAVLIMYKVFLKYPESLRPAFPRLKEKLEDPDPGVQSAAVNVICELARRNPKNYLSLAPLFFKLMTSSTNNWVLIKIIKLFGALTPLEPRLGKKLIEPLTNLIHSTSAMSLLYECVNTVIAVLISLSSGMPNHSASIQLCVQKLRILIEDSDQNLKYLGLLAMSKILKTHPKSVQSHKDLILQCLDDKDESIRLRALDLLYGMVSKKNLMEIVKKLMTHVDKAEGTTYRDELLTKIIDICSQSNYQYITNFEWYISILVELTRLEGTRHGHLIAAQMLDVAIRVKAIRKFAVSQMSALLDSAHLLASSTQRNGICEVLYAAAWICGEFSEHLQEPHHTLEAMLRPRVTTLPGHIQAVYVQNVVKLYASILQQKEQAGEAEGAQAVTQLMVDRLPQFVQSADLEVQERASCILQLVKHIQKLQAKDVPVAEEVSALFAGELNPVAPKAQKKVPVPEGLDLDAWINEPLSDSESEDERPRAVFHEEEQRRPKHRPSEADEEELARRREARKQEQANNPFYIKSSPSPQKRYQDTPGVEHIPVVQIDLSVPLKVPGLPMSDQYVKLEEERRHRQKLEKDKRRKKRKEKEKKGKRRHSSLPTESDEDIAPAQQVDIVTEEMPENALPSDEDDKDPNDPYRALDIDLDKPLADSEKLPIQKHRNTETSKSPEKDVPMVEKKSKKPKKKEKKHKEKERDKEKKKEKEKKKSPKPKKKKHRKEKEERTKGKKKSKKQPPGSEEAAGEPVQNGAPEEEQLPPESSYSLLAENSYVKMTCDIRGSLQEDSQVTVAIVLENRSSSILKGMELSVLDSLNARMARPQGSSVHDGVPVPFQLPPGVSNEAQYVFTIQSIVMAQKLKGTLSFIAKNDEGATHEKLDFRLHFSCSSYLITTPCYSDAFAKLLESGDLSMSSIKVDGIRMSFQNLLAKICFHHHFSVVERVDSCASMYSRSIQGHHVCLLVKKGENSVSVDGKCSDSTLLSNLLEEMKATLAKC
# B6: Riok1 (protein, UniProt Q9BRS2 1-568)
# chain: MDYRRLLMSRVVPGQFDDADSSDSENRDLKTVKEKDDILFEDLQDNVNENGEGEIEDEEEEGYDDDDDDWDWDEGVGKLAKGYVWNGGSNPQANRQTSDSSSAKMSTPADKVLRKFENKINLDKLNVTDSVINKVTEKSRQKEADMYRIKDKADRATVEQVLDPRTRMILFKMLTRGIITEINGCISTGKEANVYHASTANGESRAIKIYKTSILVFKDRDKYVSGEFRFRHGYCKGNPRKMVKTWAEKEMRNLIRLNTAEIPCPEPIMLRSHVLVMSFIGKDDMPAPLLKNVQLSESKARELYLQVIQYMRRMYQDARLVHADLSEFNMLYHGGGVYIIDVSQSVEHDHPHALEFLRKDCANVNDFFMRHSVAVMTVRELFEFVTDPSITHENMDAYLSKAMEIASQRTKEERSSQDHVDEEVFKRAYIPRTLNEVKNYERDMDIIMKLKEEDMAMNAQQDNILYQTVTGLKKDLSGVQKVPALLENQVEERTCSDSEDIGSSECSDTDSEEQGDHARPKKHTTDPDIDKKERKKMVKEAQREKRKNKIPKHVKKRKEKTAKTKKGK
# Target: Biotin-FOXC1 (mouse) (UniProt Q61572)
# Assay: affinity purification with mass spectrometry; streptavidin-agarose precipitation of biotinylated FOXC1 from nuclear extract of stable HEK293T cells (293T-Biotin-FOXC1); IP350 buffer (350 mM NaCl, 20 mM Tris-HCl pH 7.5, 0.5% NP40, 1 mM EDTA, 10% glycerin); SDS-PAGE, LC-ESI-MS/MS; proteins of the 293T-Biotin control deducted
row,binding,Binder
1,binds,B1
2,binds,B2
3,binds,B3
4,binds,B4
5,binds,B5
6,binds,B6

# — paper PMC7956269
